Results: PubChem BioAssay AID2685 (National Center for Advancing Translational Sciences (NCATS), 2010)
Some of the results follow. The main result of the screen is listed elsewhere. These columns were measured beside it and carry no call. Compounds called inactive in the main read-out are mostly missing here. Potencies come from curve fits of mixed quality, noted in brackets.

Assay: qHTS Assay for Lipid Storage Modulators in Drosophila S3 Cells;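 as to cell number change: cells counted by Cell Tracker Red CMTPX staining in the red channel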
Conditions: BODIPY lipid droplet fluorescence, 18-24 h; for cell number change: measured here: cell count max response, cells fed with added oleic acid
Procedure, shortened: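 Laser-scanning cytometry quantifies lipid droplet accumulation (500–530 nm total intensity; droplet/cell object ratio) in oleic acid-fed (400 uM added) Drosophila S3 cells treated with a concentration series. 20 uM Triacsin C defined 100% inhibition.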

[1] = measured here: cell number channel AC50, cells fed with added oleic acid
[2] = measured here: lipid fluorescence (Fed channel) AC50, cells fed with added oleic acid

CCCn1c(=O)c2ccccc2n2c(SCc3c(C(=O)OCC)oc4ccccc34)nnc12
cell number change: 1.34%

CCCCCCC(=O)N(O)C1CC(=O)N(Cc2ccccc2)C1=O (centres undefined)
cell number change: -15.9%
AC50 [1]: 3.66 µM [falling, partial curve, poor fit]
AC50 [2]: 0.461 µM [falling, full curve]

CCCCN(C(=O)CN1C(=O)C2CCCCC2C1=O)c1c(N)n(CCC)c(=O)[nH]c1=O (centres undefined)
cell number change: -49.8%
AC50 [1]: 29.1 µM [falling, single point]

C=CCn1c(=O)c2c3c(sc2n2c(Nc4ccc(C(=O)OCC)cc4)nnc12)CCCC3
cell number change: -8.41%
AC50 [1]: 0.517 µM [rising, full curve]
AC50 [2]: 0.651 µM [rising, full curve]

Cc1nn(C)cc1CNC(=O)c1cccc(F)c1
cell number change: -0.651%
AC50 [2]: 16.4 µM [rising, single point]

COc1ccc(OC)c(NC(=O)Cn2cccc2)c1
cell number change: 21.8%

CSc1ccccc1NC(=O)CSc1n[nH]c(N)n1
cell number change: 19%
AC50 [1]: 0.82 µM [rising, single point]

Nc1ncnc2c1ncn2C1OC(C(=O)NC2CC2)C(O)C1O (centres undefined)
cell number change: 4.46%
AC50 [1]: 0.206 µM [falling, full curve, poor fit]

COc1nc(Nc2cccc([N+](=O)[O-])c2)nc(OC)n1
cell number change: 2.96%
AC50 [2]: 0.0651 µM [falling, full curve, poor fit]

O=C(Nc1nccs1)c1cc(-c2ccco2)nc2ccccc12
cell number change: 20.6%
AC50 [2]: 1.46 µM [rising, full curve]

Oc1cccc(Nc2nc(NCC3CCCO3)c3ccccc3n2)c1 (centres undefined)
cell number change: -88.2%
AC50 [1]: 20.6 µM [falling, single point]

O=C(O)COc1ccc(NC(=O)c2ccc(NC(=O)c3ccco3)cc2)cc1
cell number change: -46.4%

COc1ccc2[nH]c3c(=O)n(Cc4ccc(C(=O)N5CCCCCC5)cc4)c(=S)[nH]c3c2c1
cell number change: 15.7%
AC50 [2]: 3.26 µM [rising, single point]

NC(CO)C(O)c1ccc([N+](=O)[O-])cc1 (centres undefined)
cell number change: -7.18%
AC50 [1]: 0.00517 µM [falling, full curve, poor fit]
AC50 [2]: 0.00461 µM [falling, full curve, poor fit]

CCCSc1ccc([C@H]2N[C@@](Cc3ccccc3)(C(=O)OC)[C@H]3C(=O)N(CC)C(=O)[C@@H]23)cc1
cell number change: -14.1%
AC50 [2]: 0.58 µM [rising, single point]

O=C(NNC(=O)C1CC1c1ccccc1)c1ccccc1F (centres undefined)
cell number change: 15.7%
AC50 [2]: 25.9 µM [rising, partial curve]

O=C(Nc1nc(-c2ccc3c(c2)OCCO3)cs1)C1CCCC1
AC50 [2]: 1.64 µM [falling, single point]

CC(CNC(=O)Cn1ccc(NC(=O)OCc2ccccc2)nc1=O)c1ccccc1 (centres undefined)
cell number change: -17.7%
AC50 [2]: 20.6 µM [falling, single point]

COc1ccc(CCNC(=O)c2cc3c(=O)n(C)c4ccccc4c3n2C)c(OC)c1
cell number change: -8.4%
AC50 [2]: 0.206 µM [rising, full curve]

COc1ccc(C2(C)NC(=O)N(CC(=O)Nc3ccc(Br)c(C)c3)C2=O)cc1OC (centres undefined)
cell number change: -17.1%

COc1cccc(S(=O)(=O)NC2CCN(C#N)C2)c1 (centres undefined)
cell number change: -2.53%
AC50 [2]: 0.00517 µM [falling, full curve, poor fit]

CCC(=O)c1c[nH]c(C(=O)NCC2CCCO2)c1 (centres undefined)
cell number change: -77.1%
AC50 [1]: 25.9 µM [falling, partial curve]
AC50 [2]: 0.58 µM [falling, single point]

COc1ccc(Nc2cc(C(=O)NCCCN3CCN(C)CC3)c3ccccc3n2)cc1OC
cell number change: -12.1%

CCN(CC)S(=O)(=O)c1ccc(C(=O)OCC(=O)c2ccc3c(c2)NC(=O)CO3)cc1
cell number change: -11.5%
AC50 [2]: 32.6 µM [falling, single point]

OC(COc1ccc(OCc2ccccc2)cc1)CN1CCCCC1 (centres undefined)
cell number change: -23.8%
AC50 [1]: 2.06 µM [falling, full curve, poor fit]
AC50 [2]: 29.1 µM [falling, single point]

COc1cc(-c2nnc3n2N=C(c2ccccc2)CS3)cc(OC)c1OC
cell number change: -19.2%

COc1cccc(C(=O)NCC(=O)N2CCN(c3ccc(C(F)(F)F)cn3)CC2)c1
cell number change: 35.3%
AC50 [1]: 11.6 µM [rising, single point]

CN1C2=CC=CC=CC2=[N+](C)C12C([N+](=O)[O-])=CC(=[N+]([O-])[O-])C=C2[N+](=O)[O-] (centres undefined)
cell number change: -9.93%

Cc1cccc(C(=O)N2CCN(c3ccc(C(F)(F)F)cn3)CC2)c1C
cell number change: 19.1%
AC50 [1]: 4.61 µM [falling, partial curve, poor fit]
AC50 [2]: 0.58 µM [falling, single point]

O=C1CN(S(=O)(=O)c2ccccc2)CC(=O)N1CCc1ccccc1
cell number change: -138%
AC50 [2]: 0.651 µM [falling, single point]

C=CCOC(=O)C(=O)/C=C/c1csc2ccccc12
cell number change: -42.8%
AC50 [1]: 18.4 µM [falling, single point]

O=C(/C=C/c1ccco1)Nc1ccccc1C(=O)O
cell number change: -16.6%

O=C(CN1CCN(c2ccccn2)CC1)Nc1ccc(Oc2ccccc2)cc1
cell number change: 38.2%
AC50 [1]: 29.1 µM [rising, single point]

CC(c1ccccc1)n1c(-c2ccc(Cl)cc2)n[nH]c1=S (centres undefined)
cell number change: -34.9%
AC50 [1]: 14.6 µM [falling, partial curve, poor fit]

CN1CCN(C(=O)C23CC4CC(CC(C4)C2)C3)CC1
cell number change: -54.7%
AC50 [1]: 18.4 µM [falling, single point]
AC50 [2]: 18.4 µM [falling, single point]

COc1ccc(C=O)cc1COc1ccc(F)cc1F
cell number change: 17%

O=C(CSc1nc2ccccc2[nH]1)Nc1ccc2[nH]c(=O)[nH]c2c1
cell number change: 2.51%
AC50 [1]: 7.31 µM [falling, partial curve, poor fit]

NC(=O)c1oc2ccccc2c1NC(=O)c1ccc(F)cc1
AC50 [1]: 1.46 µM [rising, partial curve]
AC50 [2]: 0.517 µM [rising, full curve]

CC(=O)Nc1ncc(Cc2ccc(Cl)cc2Cl)s1
cell number change: -5.14%
AC50 [1]: 6.51 µM [falling, single point]

COc1ccc(C2c3ccc(O)cc3Oc3ncn4nc(-c5cccnc5)nc4c32)cc1OC (centres undefined)
cell number change: -32%
AC50 [1]: 1.46 µM [falling, partial curve]
AC50 [2]: 1.46 µM [falling, partial curve, poor fit]

CCc1ccc(CN2CCC(N3CCC(C(=O)N4CCCC4)CC3)CC2)o1
cell number change: 51.8%
AC50 [1]: 29.1 µM [rising, single point]

Nc1c(C(=O)Nc2ccc(Cl)cc2)oc2ccccc12
cell number change: 36.2%
AC50 [1]: 3.26 µM [rising, single point]

CCCc1nc(SCC(=O)NNC(=O)c2ccc(OC)cc2)c2ccccc2n1
cell number change: -5.08%
AC50 [2]: 7.31 µM [falling, partial curve, poor fit]

Cc1cc(C)cc(NC(=O)CSc2nnc(Cc3cccn3C)n2-c2ccc(F)cc2)c1
cell number change: 8.51%
AC50 [1]: 2.06 µM [rising, partial curve]

O=C(NC(=S)NCc1cccnc1)c1ccccc1F
cell number change: 20.6%
AC50 [1]: 0.184 µM [rising, full curve, poor fit]

CC(C)(C)c1cnnn1-c1ccc(-c2csc(N)n2)cc1
cell number change: 106%
AC50 [1]: 16.4 µM [rising, partial curve]
AC50 [2]: 18.4 µM [rising, partial curve]

COc1cccc(NC(=O)CCc2nc(-c3ccccc3F)no2)c1
cell number change: -24.4%
AC50 [1]: 3.26 µM [falling, single point]

NS(=O)(=O)c1ccc(CCNC(=O)COC(=O)C2CCCN2C(=O)c2cccs2)cc1 (centres undefined)
cell number change: 0.606%

C=CCn1c(SCC(=O)Nc2ccc3c(c2)OCCO3)nnc1-c1ccccn1
cell number change: 53.6%
AC50 [1]: 5.17 µM [rising, full curve, poor fit]
AC50 [2]: 1.64 µM [rising, partial curve]

Cc1ccccc1NC(=O)COC(=O)/C=C/c1cccc(C(F)(F)F)c1
cell number change: 19.3%
AC50 [2]: 0.00517 µM [rising, full curve, poor fit]

CCOC(=O)Cc1csc(NC(=O)Nc2ccc(F)cc2)n1
cell number change: 1.47%
AC50 [1]: 6.51 µM [rising, single point]
AC50 [2]: 7.31 µM [rising, single point]

CC(=O)c1ccc(NC(=O)C2CCC(C)(C(=O)O)C2(C)C)cc1 (centres undefined)
cell number change: -1.15%

Cc1cnc(C(=O)N(CC(C)C)c2c(N)n(CC(C)C)c(=O)[nH]c2=O)cn1
cell number change: -14.3%
AC50 [2]: 6.51 µM [rising, single point]

C/C(=N\NC(=O)CNc1cccc2ccccc12)c1ccc(Br)s1
cell number change: -21.1%
AC50 [2]: 32.6 µM [falling, single point]

CCCn1c(N)c(C(=O)CN(C)CC(=O)Nc2ccc(F)cc2)c(=O)[nH]c1=O
cell number change: -2.76%
AC50 [2]: 0.517 µM [falling, single point]

CCOc1ccc(OCC)c(NC(=O)CSc2nc3ccccc3c(=O)n2C)c1
cell number change: -24.7%

COc1ccc(-c2csc(NC(=O)C3CCCCN3S(=O)(=O)c3ccccc3)n2)cc1 (centres undefined)
cell number change: -43.8%
AC50 [1]: 25.9 µM [falling, single point]
AC50 [2]: 20.6 µM [falling, partial curve]

COc1ccc(Cl)cc1NC(=O)Cn1c(C)csc1=O
cell number change: 8.99%
AC50 [2]: 0.0517 µM [rising, full curve, poor fit]

O=C1N(Cc2cccnc2)C[C@@H]2C[C@@H](c3cccc(C(F)(F)F)c3)N3CCC[C@@]123
cell number change: -9.66%

Cc1ccc(C)c(OCCSc2nnc(-c3cccnc3)n2N)c1
cell number change: 2.37%
AC50 [1]: 0.92 µM [rising, partial curve, poor fit]
AC50 [2]: 0.651 µM [rising, partial curve, poor fit]
